Results are given in words; binding and its absence hold for the method and conditions named. Some results given as binding are weak or reduced against the parent protein; the word gives no strength. Where a sequence is shown, tags or fusion partners need not be part of it. One block for each binder: values may come before it.
Legend:
ANGPTL8-V5 (human) = biological target: T1, ANGPTL8-V5 (human) (UniProt Q6UXH0); assay: AlphaLISA on CHO-K1 cell media with ANGPTL3-myc and ANGPTL8-V5 (anti-V5 acceptor beads, biotinylated anti-myc antibody and streptavidin donor beads)
T1 sequence: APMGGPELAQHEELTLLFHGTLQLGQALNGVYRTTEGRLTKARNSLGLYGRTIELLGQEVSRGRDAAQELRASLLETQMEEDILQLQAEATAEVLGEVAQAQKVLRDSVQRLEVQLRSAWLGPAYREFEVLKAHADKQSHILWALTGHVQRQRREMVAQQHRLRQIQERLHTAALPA

ANGPTL3-myc [1] = biological target: T2, ANGPTL3-myc (UniProt Q9Y5C1); assay: AlphaLISA proximity assay, anti-V5 acceptor beads and biotinylated anti-myc with streptavidin donor beads
T2 sequence (looked up): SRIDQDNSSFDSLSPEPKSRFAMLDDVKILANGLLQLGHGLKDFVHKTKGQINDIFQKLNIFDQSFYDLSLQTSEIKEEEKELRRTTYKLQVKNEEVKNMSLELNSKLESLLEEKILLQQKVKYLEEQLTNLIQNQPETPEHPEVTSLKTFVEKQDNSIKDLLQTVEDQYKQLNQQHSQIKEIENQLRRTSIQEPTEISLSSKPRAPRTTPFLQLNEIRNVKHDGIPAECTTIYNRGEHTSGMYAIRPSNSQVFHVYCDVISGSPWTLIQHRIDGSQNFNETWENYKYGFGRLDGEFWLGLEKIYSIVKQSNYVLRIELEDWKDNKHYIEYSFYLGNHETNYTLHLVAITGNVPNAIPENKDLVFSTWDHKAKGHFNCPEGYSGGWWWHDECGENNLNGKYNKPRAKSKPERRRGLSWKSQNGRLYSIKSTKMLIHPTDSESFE

ANGPTL3-myc [2] = biological target: T2, ANGPTL3-myc; assay: summary of the AlphaLISA assay of Example 6

- binding (ANGPTL8-V5 (human)): binds
B1: ANGPTL3-myc (ligand, UniProt Q9Y5C1 17-460, looked up, not shown: small tags and cut ends)
chain: T2 sequence (looked up)

- binding (ANGPTL3-myc [1]): binds
- binding (ANGPTL3-myc [2]): binds
B2: ANGPTL8-V5 (ligand, not shown: small tags and cut ends)
chain: T1 sequence
